Paper PMC5457407
These are yes or no findings as the source states them, for the method shown. Binding seen in cells or lysates may run through a third protein. Some binding calls cover weakened binding; strength is not graded here.

The chains behind the UniProt entries cited, without tags or fusion partners. Residues count along the entry.
UniProt Q99KR7, residues 30-206: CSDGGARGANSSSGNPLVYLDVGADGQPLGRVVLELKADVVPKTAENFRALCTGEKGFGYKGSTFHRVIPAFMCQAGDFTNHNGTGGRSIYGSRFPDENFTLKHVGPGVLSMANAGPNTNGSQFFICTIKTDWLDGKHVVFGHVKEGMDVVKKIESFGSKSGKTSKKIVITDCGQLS

Molecular target: cyclophilin D (mouse (endogenous in myocardial cells isolated from C57 mice)) (UniProt Q99KR7)
Test: co-IP; lysates of myocardial cells isolated from sham, TAC and AST-treated TAC mice; incubated with anti-PPARα or anti-CypD antibodies overnight at 4 °C, harvested with protein A/G-agarose beads, immunoblotted for CypD and PPARα

B1: peroxisome proliferator-activated receptor alpha (protein, UniProt P23204 1-468)
chain: MVDTESPICPLSPLEADDLESPLSEEFLQEMGNIQEISQSIGEESSGSFGFADYQYLGSCPGSEGSVITDTLSPASSPSSVSCPVIPASTDESPGSALNIECRICGDKASGYHYGVHACEGCKGFFRRTIRLKLVYDKCDRSCKIQKKNRNKCQYCRFHKCLSVGMSHNAIRFGRMPRSEKAKLKAEILTCEHDLKDSETADLKSLGKRIHEAYLKNFNMNKVKARVILAGKTSNNPPFVIHDMETLCMAEKTLVAKMVANGVEDKEAEVRFFHCCQCMSVETVTELTEFAKAIPGFANLDLNDQVTLLKYGVYEAIFTMLSSLMNKDGMLIAYGNGFITREFLKNLRKPFCDIMEPKFDFAMKFNALELDDSDISLFVAAIICCGDRPGLLNIGYIEKLQEGIVHVLKLHLQSNHPDDTFLFPKLLQKMVDLRQLVTEHAQLVQVIKKTESDAALHPLLQEIYRDMY
binding: binds
